Reference: paper PMC5931518, “Architecture of the U6 snRNP reveals specific recognition of 3′-end processed U6 snRNA”
No constants are given. Whether binding was seen depends on the method and setting. Some binding calls cover weakened binding; strength is not graded here.

Target: T1, Lsm6 (subunit of the "mostly wild type" Lsm2–8 ring) (S. cerevisiae) (UniProt Q06406)
T1 sequence: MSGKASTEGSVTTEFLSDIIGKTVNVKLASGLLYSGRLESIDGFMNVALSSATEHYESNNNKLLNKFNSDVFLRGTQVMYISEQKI
Experiment: crystal structure; U6 snRNP reconstituted from U6 nucleotides 30–112 (A62G, terminal 2′ phosphate), Prp24 1–444 and "mostly wild type" Lsm2–8; hanging drop, 16 °C; PDB 5VSU; both purified

binding: binds
B1: Lsm8 (subunit of the "mostly wild type" Lsm2–8 ring) (protein, UniProt P47093 1-109)
chain: MSATLKDYLNKRVVIIKVDGECLIASLNGFDKNTNLFITNVFNRISKEFICKAQLLRGSEIALVGLIDAENDDSLAPIDEKKVPMLKDTKNKIENEHVIWEKVYESKTK
